Patent US4868176A, “Novel imidazobenzodiazepines” (Roussel Uclaf, priority 1987, dated 1989)
The name of at least one read-out is uncertain.

Target: benzodiazepine receptors in the brain
Assay: benzodiazepine receptor binding (BRB)

CN1Cc2c(C(=O)C3CC3)ncn2-c2ccccc2C1=O [Compound 1, 3-(5,6-dihydro-5-methyl-6-oxo-4H-imidazo[1,5a][1,4]benzodiazepinyl)-cyclopropylmethanone]
IC50: 95 nM

CN1Cc2c(C(=O)C3CC3)ncn2-c2ccc(Cl)cc2C1=O [Compound 2, (8-Chloro-5,6-dihydro-5-methyl-6-oxo-4H-imidazo[1,5-a][1,4]benzodiazepin-3-yl)-cyclopropylmethanone]
IC50: 64 nM

CN1Cc2c(C(=O)C3CC3)ncn2-c2ccc(F)cc2C1=O [Compound 3, (5,6-Dihydro-8-fluoro-5-methyl-6-oxo-4H-imidazo[1,5-a][1,4]benzodiazepin-3-yl)-cyclopropylmethanone]
IC50: 560 nM

CN1Cc2c(C(=O)C3CC3)ncn2-c2ccc(Br)cc2C1=O [Compound 4, (8-Bromo-5,6-dihydro-5-methyl-6-oxo-4H-imidazo[1,5-a][1,4]benzodiazepin-3-yl)-cyclopropylmethanone]
IC50: 354 nM

CN1Cc2c(C(=O)c3ccccc3)ncn2-c2ccc(F)cc2C1=O [Compound 6, (5,6-Dihydro-8-fluoro-5-methyl-6-oxo-4H-imidazo[1,5-a][1,4]benzodiazepin-3-yl)phenylmethanone]
IC50: > 10000 nM
